Measured data: PubChem BioAssay AID1259424 (University of Nebraska Medical Center, 2018)

Purpose: 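Seek colon cancer survival genes behaving like KSR1, using a six-gene signature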 (primary screen)
Cells: human HCT116 colon cancer cells
Reagent: siRNA pool against human genes, 50 nM
Measurement: 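Log2 levels of six mRNAs (branched-DNA multiplex), adjusted by two reference genes and the non-targeting median, then scored against the average KSR1 knockdown pattern as Pearson r and euclidean distance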
Reading the numbers: mean correlation with KSR1 profile: higher = expression change more like KSR1 knockdown
This is one part, drawn at random, of about 14,000 reagents tested. 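Higher correlation or smaller distance means closer resemblance to KSR1 loss; control wells, including KSR1 knockdowns, recur on many plates.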 Further read-outs or replicates are left out here. The record does not give: the time to read-out.

gene	mean correlation with KSR1 profile
HOMER2 (GeneID 9455)	0.116
AQP5 (GeneID 362)	-0.53
FOXJ1 (GeneID 2302)	-0.148
NAB2 (GeneID 4665)	0.452
PARP1 (GeneID 142)	-0.548
KCNE1 (GeneID 3753)	-0.408
BMP5 (GeneID 653)	-0.36
RUNDC3A (GeneID 10900)	-0.327
TARBP2 (GeneID 6895)	0.611
WWP2 (GeneID 11060)	-0.0945
TTC31 (GeneID 64427)	-0.408
CRYBA2 (GeneID 1412)	0.338
SRSF8 (GeneID 10929)	-0.0218
LTC4S (GeneID 4056)	0.305
MBD3L1 (GeneID 85509)	0.0654
HLA-E (GeneID 3133)	-0.58

2 neighbouring reagents from above, for reference:
gene	mean correlation with KSR1 profile
HOMER2 (GeneID 9455)	0.116
AQP5 (GeneID 362)	-0.53
